Data reported in US11013786B2, “Therapy” (SELECTIMMUNE PHARMA AB, priority 2015, dated 2021).
At least one structure is not confirmed: it was looked up by name or label, or the drawing left a doubt.

Tested on: Asc^−/− mice infected with E. coli CFT073
Test: Acute cystitis immunotherapy in the experimental urinary tract infection model (Asc−/− mice infected with E. coli CFT073)
Type: in vivo
Conditions: for macroscopic bladder pathology: Batimastat 0.5 mg in 100 μl PBS i.p. 30 min before, first three and last three days of infection

CNC(=O)[C@H](Cc1ccccc1)NC(=O)[C@H](CC(C)C)[C@H](CSc1cccs1)C(=O)NO [Batimastat]
neutrophil infiltration (Batimastat 0.5 mg i.p., bladder sections): markedly reduced | bacterial numbers (Batimastat 0.5 mg i.p., urine, 7 days after infection): remained elevated | bladder edema and hyperemia (Batimastat 0.5 mg i.p., vs untreated Asc−/− mice): reduction | macroscopic bladder pathology: protected | macroscopic bladder pathology (listed as MMP1): prevented | acute cystitis and pathology (MMP inhibitor (Batimastat) 0.5 mg i.p.): prevented
